PubChem BioAssay AID1259308 – NCATS | 2017

Purpose: 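Candidate targets for better recombinant protein yield in mammalian cells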 (primary screen)
Cells: human HEK293 embryonic kidney cells stably expressing firefly luciferase (HEK-CMV-Luc2-Hygro)
Reagent: single siRNA against human genes, 0.8 pmol siRNA per well
Timing: 72 h
Measurement: 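Reporter luminescence and viable-cell signal on separate replicate plates, given as percent of non-targeting control and median/MAD z-scores, plus per-cell luciferase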
Reading the numbers: total luciferase, z-score: higher = more reporter protein produced
Rule for the call: 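Active when the median/MAD z-score for overall luciferase is greater than 3; a gene was taken forward for validation with new siRNAs if at least two of its three siRNAs passed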
Meaning of the calls: active = raised luciferase; inactive = no rise
In all, the deposit lists about 59,000 reagents; below is an unselected part. About 1,510 of them (2.6%) count as active. 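Calls use total luciferase alone and ignore viability, so some active siRNAs may act by altering cell number.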 Unmarked entries are inactive. The numbers tell different reagents against one gene apart. Not all columns of the deposit are shown. No sequences are given here.

CCR8 (C-C motif chemokine receptor 8) #1
- total luciferase, z-score: 0.51

CCR8 (C-C motif chemokine receptor 8) #2
- total luciferase, z-score: 0.737

CCR8 (C-C motif chemokine receptor 8) #3
- total luciferase, z-score: 0.432

MISP3 (MISP family member 3) #1
- total luciferase, z-score: 3.68 (active)

MISP3 (MISP family member 3) #2
- total luciferase, z-score: 0.0774

MISP3 (MISP family member 3) #3
- total luciferase, z-score: 0.278

SHOX (SHOX homeobox) #1
- total luciferase, z-score: -0.409

SHOX (SHOX homeobox) #2
- total luciferase, z-score: -1

SHOX (SHOX homeobox) #3
- total luciferase, z-score: -1.38

TOP6BL (TOP6B like initiator of meiotic double strand breaks) #1
- total luciferase, z-score: 0.512

TOP6BL (TOP6B like initiator of meiotic double strand breaks) #2
- total luciferase, z-score: -0.785

TOP6BL (TOP6B like initiator of meiotic double strand breaks) #3
- total luciferase, z-score: -0.882

L3MBTL4 (L3MBTL histone methyl-lysine binding protein 4) #1
- total luciferase, z-score: 3.89 (active)

L3MBTL4 (L3MBTL histone methyl-lysine binding protein 4) #2
- total luciferase, z-score: 4.04 (active)

L3MBTL4 (L3MBTL histone methyl-lysine binding protein 4) #3
- total luciferase, z-score: -0.184

RAD9A (RAD9 checkpoint clamp component A) #1
- total luciferase, z-score: 1.04

RAD9A (RAD9 checkpoint clamp component A) #2
- total luciferase, z-score: 0.864

RAD9A (RAD9 checkpoint clamp component A) #3
- total luciferase, z-score: -0.357

Records listed so far called active, once more:
MISP3 (MISP family member 3) #1
- total luciferase, z-score: 3.68 (active)

L3MBTL4 (L3MBTL histone methyl-lysine binding protein 4) #1
- total luciferase, z-score: 3.89 (active)

L3MBTL4 (L3MBTL histone methyl-lysine binding protein 4) #2
- total luciferase, z-score: 4.04 (active)

Further reagents follow:
AKAP3 (A-kinase anchoring protein 3) #1
- total luciferase, z-score: 0.0218

AKAP3 (A-kinase anchoring protein 3) #2
- total luciferase, z-score: 1.12

AKAP3 (A-kinase anchoring protein 3) #3
- total luciferase, z-score: 0.378

TACR3 (tachykinin receptor 3) #1
- total luciferase, z-score: 1.36

TACR3 (tachykinin receptor 3) #2
- total luciferase, z-score: -0.755

TACR3 (tachykinin receptor 3) #3
- total luciferase, z-score: -0.492

CD7 (CD7 molecule) #1
- total luciferase, z-score: 0.153

CD7 (CD7 molecule) #2
- total luciferase, z-score: -0.363

CD7 (CD7 molecule) #3
- total luciferase, z-score: 1.38

INTS15 (integrator complex subunit 15) #1
- total luciferase, z-score: 0.463

INTS15 (integrator complex subunit 15) #2
- total luciferase, z-score: 1.22

INTS15 (integrator complex subunit 15) #3
- total luciferase, z-score: 0.911

CYCS (cytochrome c, somatic) #1
- total luciferase, z-score: 2.01

CYCS (cytochrome c, somatic) #2
- total luciferase, z-score: 1.88

CYCS (cytochrome c, somatic) #3
- total luciferase, z-score: 0.292

ADCY2 (adenylate cyclase 2) #1
- total luciferase, z-score: 0.265

ADCY2 (adenylate cyclase 2) #2
- total luciferase, z-score: -0.0919

ADCY2 (adenylate cyclase 2) #3
- total luciferase, z-score: -1.07

GJD3 (gap junction protein delta 3) #1
- total luciferase, z-score: -0.49

GJD3 (gap junction protein delta 3) #2
- total luciferase, z-score: 0.665

GJD3 (gap junction protein delta 3) #3
- total luciferase, z-score: -0.7

SRP72 (signal recognition particle 72) #1
- total luciferase, z-score: 0.653

SRP72 (signal recognition particle 72) #2
- total luciferase, z-score: -0.528

SRP72 (signal recognition particle 72) #3
- total luciferase, z-score: -0.54
